Laboratory results: PubChem BioAssay AID1259254 (NCATS, 2017)

Purpose: 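Gene knock-downs that lead to re-replication, shown by excess G2 DNA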 (primary screen)
System: human HCT116 colorectal cancer cells
Reagent: single siRNA against human genes
Time to read-out: 3 days
Read-out: 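Nuclei stained with Hoechst and imaged; cell-cycle phase assigned by DNA content; G2 share scaled per plate, non-targeting siRNA 0%, GMNN siRNA 100%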
Scale: G2 robust z-score and G2 cells, % of GMNN control: higher = more G2 cells, more excess DNA replication; raw share of cells in G2: higher = larger share of cells with G2 DNA content
Active means: 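Active siRNAs have a G2 robust z of 5 or more median absolute deviations over the median, which in these data means about 38% or higher of GMNN control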
The deposit covers about 59,000 reagents; this is a part drawn at random. About 1,550 of all reagents (2.6%) were called active. 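G2 share is only a proxy for re-replication; each gene was hit by three separate siRNAs, and active genes were retested.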 Raw values vary from plate to plate and are shown uncorrected. Reagents against one gene are numbered here. Not given: the amount of reagent.

gene knocked down | reagent | G2 robust z-score | G2 cells, % of GMNN control | raw share of cells in G2 (%) | Outcome
TRIM43 (tripartite motif containing 43) | 1 | -0.632 | -1.48 | 4.33 | inactive
TRIM43 (tripartite motif containing 43) | 2 | 3.68 | 28.8 | 15.4 | inactive
TRIM43 (tripartite motif containing 43) | 3 | 1.8 | 15.6 | 12.9 | inactive
TTC24 (tetratricopeptide repeat domain 24) | 1 | -1.09 | -4.71 | 1.91 | inactive
TTC24 (tetratricopeptide repeat domain 24) | 2 | -0.999 | -4.06 | 1.6 | inactive
TTC24 (tetratricopeptide repeat domain 24) | 3 | -0.455 | -0.233 | 2.69 | inactive
METTL21A (methyltransferase 21A, HSPA lysine) | 1 | 1.65 | 14.6 | 8.72 | inactive
METTL21A (methyltransferase 21A, HSPA lysine) | 2 | -0.563 | -0.994 | 2.61 | inactive
METTL21A (methyltransferase 21A, HSPA lysine) | 3 | -0.289 | 0.936 | 3.39 | inactive
EMID1 (EMI domain containing 1) | 1 | -0.627 | -1.45 | 2.59 | inactive
EMID1 (EMI domain containing 1) | 2 | -0.354 | 0.474 | 3.33 | inactive
EMID1 (EMI domain containing 1) | 3 | 0.207 | 4.42 | 5.08 | inactive
ANKRD24 (ankyrin repeat domain 24) | 1 | 1.55 | 13.9 | 8.57 | inactive
ANKRD24 (ankyrin repeat domain 24) | 2 | 2.57 | 21.1 | 10 | inactive
ANKRD24 (ankyrin repeat domain 24) | 3 | -0.115 | 2.16 | 3.44 | inactive
ZNF235 (zinc finger protein 235) | 1 | 4.61 | 35.4 | 21.7 | inactive
ZNF235 (zinc finger protein 235) | 2 | 1.32 | 12.2 | 8.46 | inactive
ZNF235 (zinc finger protein 235) | 3 | -0.824 | -2.83 | 2.59 | inactive
ZNF26 (zinc finger protein 26) | 1 | -0.502 | -0.566 | 3.34 | inactive
ZNF26 (zinc finger protein 26) | 2 | -0.17 | 1.77 | 6.78 | inactive
ZNF26 (zinc finger protein 26) | 3 | -0.688 | -1.88 | 2.55 | inactive
CYP27B1 (cytochrome P450 family 27 subfamily B member 1) | 1 | 0.0309 | 3.18 | 6.16 | inactive
CYP27B1 (cytochrome P450 family 27 subfamily B member 1) | 2 | 0.078 | 3.52 | 5.31 | inactive
CYP27B1 (cytochrome P450 family 27 subfamily B member 1) | 3 | 2.14 | 18 | 11.4 | inactive
CDK9 (cyclin dependent kinase 9) | 1 | 0.823 | 8.76 | 8.5 | inactive
CDK9 (cyclin dependent kinase 9) | 2 | -0.381 | 0.286 | 5.51 | inactive
CDK9 (cyclin dependent kinase 9) | 3 | -0.353 | 0.482 | 4.19 | inactive
OR8D4 (olfactory receptor family 8 subfamily D member 4) | 1 | 3.47 | 27.3 | 13.4 | inactive
OR8D4 (olfactory receptor family 8 subfamily D member 4) | 2 | -0.35 | 0.504 | 3.48 | inactive
OR8D4 (olfactory receptor family 8 subfamily D member 4) | 3 | 0.913 | 9.39 | 7.97 | inactive
STEEP1 (STING1 ER exit protein 1) | 1 | -0.858 | -3.07 | 3.24 | inactive
STEEP1 (STING1 ER exit protein 1) | 2 | 1.52 | 13.7 | 10.7 | inactive
STEEP1 (STING1 ER exit protein 1) | 3 | 0.294 | 5.04 | 4.03 | inactive
EFCC1 (EF-hand and coiled-coil domain containing 1) | 1 | 1.02 | 10.1 | 8.08 | inactive
EFCC1 (EF-hand and coiled-coil domain containing 1) | 2 | 2.58 | 21.1 | 10.4 | inactive
EFCC1 (EF-hand and coiled-coil domain containing 1) | 3 | 7.1 | 52.9 | 22.5 | active
EFCC1 (EF-hand and coiled-coil domain containing 1) | 4 | -0.747 | -2.29 | 3.5 | inactive
EFCC1 (EF-hand and coiled-coil domain containing 1) | 5 | -0.656 | -1.65 | 3.58 | inactive
EFCC1 (EF-hand and coiled-coil domain containing 1) | 6 | -0.534 | -0.793 | 2.16 | inactive
YEATS4 (YEATS domain containing 4) | 1 | 0.921 | 9.45 | 9.59 | inactive
YEATS4 (YEATS domain containing 4) | 2 | 5.35 | 40.6 | 17.8 | active
YEATS4 (YEATS domain containing 4) | 3 | 0.402 | 5.8 | 6.42 | inactive
KMT2C (lysine methyltransferase 2C) | 1 | -0.313 | 0.765 | 4.5 | inactive
KMT2C (lysine methyltransferase 2C) | 2 | 2.5 | 20.6 | 14.2 | inactive
KMT2C (lysine methyltransferase 2C) | 3 | 0.127 | 3.86 | 5.71 | inactive
GPX6 (glutathione peroxidase 6) | 1 | 3.82 | 29.8 | 17.2 | inactive
GPX6 (glutathione peroxidase 6) | 2 | 0.962 | 9.74 | 10.6 | inactive
GPX6 (glutathione peroxidase 6) | 3 | 0.832 | 8.82 | 7.93 | inactive
SRCAP-AS1 (SRCAP antisense RNA 1) | 1 | 0.553 | 6.85 | 6.07 | inactive
SRCAP-AS1 (SRCAP antisense RNA 1) | 2 | 0.23 | 4.59 | 5.47 | inactive
SRCAP-AS1 (SRCAP antisense RNA 1) | 3 | 1.69 | 14.8 | 9.61 | inactive
IP6K3 (inositol hexakisphosphate kinase 3) | 1 | -0.00706 | 2.92 | 6.5 | inactive
IP6K3 (inositol hexakisphosphate kinase 3) | 2 | 5.46 | 41.4 | 20.2 | active
IP6K3 (inositol hexakisphosphate kinase 3) | 3 | 0.299 | 5.07 | 5.31 | inactive
KRT82 (keratin 82) | 1 | 0.18 | 4.23 | 6.58 | inactive
KRT82 (keratin 82) | 2 | -0.814 | -2.76 | 4.63 | inactive
KRT82 (keratin 82) | 3 | -0.447 | -0.177 | 4.14 | inactive
MSH6 (mutS homolog 6) | 1 | -0.962 | -3.8 | 3.66 | inactive
MSH6 (mutS homolog 6) | 2 | 0.558 | 6.89 | 8.31 | inactive
MSH6 (mutS homolog 6) | 3 | 2.2 | 18.4 | 11 | inactive
PLA2G4C (phospholipase A2 group IVC) | 1 | 1.14 | 11 | 9.12 | inactive
PLA2G4C (phospholipase A2 group IVC) | 2 | 0.695 | 7.86 | 8.11 | inactive
PLA2G4C (phospholipase A2 group IVC) | 3 | -0.513 | -0.643 | 4.48 | inactive
HHIPL2 (HHIP like 2) | 1 | 0.461 | 6.21 | 7.02 | inactive
HHIPL2 (HHIP like 2) | 2 | 0.433 | 6.01 | 6.93 | inactive
HHIPL2 (HHIP like 2) | 3 | -1.36 | -6.6 | 0.574 | inactive
RGL1 (ral guanine nucleotide dissociation stimulator like 1) | 1 | -0.6 | -1.26 | 3.44 | inactive
RGL1 (ral guanine nucleotide dissociation stimulator like 1) | 2 | -1.19 | -5.43 | 4.19 | inactive
RGL1 (ral guanine nucleotide dissociation stimulator like 1) | 3 | 0.884 | 9.19 | 7.23 | inactive
SS18L1 (SS18L1 subunit of BAF chromatin remodeling complex) | 1 | -0.0224 | 2.81 | 7.44 | inactive
SS18L1 (SS18L1 subunit of BAF chromatin remodeling complex) | 2 | -1.05 | -4.42 | 2.72 | inactive
SS18L1 (SS18L1 subunit of BAF chromatin remodeling complex) | 3 | -0.899 | -3.36 | 2.89 | inactive
SPDYA (speedy/RINGO cell cycle regulator family member A) | 1 | -1.07 | -4.58 | 3.77 | inactive
SPDYA (speedy/RINGO cell cycle regulator family member A) | 2 | 3.62 | 28.4 | 15.1 | inactive
SPDYA (speedy/RINGO cell cycle regulator family member A) | 3 | -0.34 | 0.578 | 4.94 | inactive
CADM1 (cell adhesion molecule 1) | 1 | -0.533 | -0.783 | 5.81 | inactive
CADM1 (cell adhesion molecule 1) | 2 | 4.63 | 35.5 | 16 | inactive
CADM1 (cell adhesion molecule 1) | 3 | -0.829 | -2.86 | 3.05 | inactive
BRD4 (bromodomain containing 4) | 1 | 2.03 | 17.2 | 9.92 | inactive
BRD4 (bromodomain containing 4) | 2 | 1.92 | 16.4 | 9.5 | inactive
BRD4 (bromodomain containing 4) | 3 | 2.63 | 21.5 | 15 | inactive
DGAT2 (diacylglycerol O-acyltransferase 2) | 1 | 11.6 | 84.7 | 34.9 | active
DGAT2 (diacylglycerol O-acyltransferase 2) | 2 | -1.43 | -7.1 | 2.16 | inactive
DGAT2 (diacylglycerol O-acyltransferase 2) | 3 | 0.0871 | 3.58 | 6.92 | inactive
SCN4B (sodium voltage-gated channel beta subunit 4) | 1 | 0.64 | 7.47 | 8.15 | inactive
SCN4B (sodium voltage-gated channel beta subunit 4) | 2 | -1.11 | -4.87 | 2.3 | inactive
SCN4B (sodium voltage-gated channel beta subunit 4) | 3 | -1.02 | -4.22 | 1.83 | inactive

Reagents above called active, once more:
gene knocked down | reagent | G2 robust z-score | G2 cells, % of GMNN control | raw share of cells in G2 (%) | Outcome
EFCC1 (EF-hand and coiled-coil domain containing 1) | 3 | 7.1 | 52.9 | 22.5 | active
YEATS4 (YEATS domain containing 4) | 2 | 5.35 | 40.6 | 17.8 | active
IP6K3 (inositol hexakisphosphate kinase 3) | 2 | 5.46 | 41.4 | 20.2 | active
DGAT2 (diacylglycerol O-acyltransferase 2) | 1 | 11.6 | 84.7 | 34.9 | active
